# Experimental data published in PubChem BioAssay AID662 (National Center for Advancing Translational Sciences (NCATS), 2007).
# Some of the results follow. Further columns of the screen follow, without active or inactive calls. Most of these compounds were active or inconclusive in the main read-out, so they are no random draw. Words in brackets tell the shape of the fitted curve; partial curves, single points and poor fits give uncertain potencies.
# Assay: Cell signaling CRE-BLA (Fsk stim)
# Conditions: CHO CRE-bla reporter (cAMP response element driving beta-lactamase), forskolin EC10, beta-lactamase ratio; measured here: 460 nm blue channel
# Method in brief: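 The 460nm/530nm emission ratio after CCF4 loading defined %Activity, from which AC50 values were obtained. CRE-bla CHO cells received compound dilution series together with an EC10 level of NKH 477 for 3 hours at 37 degrees Celsius.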
row,Structure (SMILES),AC50
1,COc1ccc(-c2nnc3ccc(SCC(=O)N4CCN(c5ccccc5)CC4)nn23)cc1OC,"1.58 µM [rising, partial curve]"
2,O=c1[nH]c(CN2CCN(c3ccccc3)CC2)nc2ccccc12,"5.01 µM [falling, partial curve, poor fit]"
3,COCC(=O)Nc1sc2c(c1C(=O)OC)C(C(=O)OC)CC2 (centres undefined),"25.1 µM [rising, single point]"
4,CCOC(=O)Cn1cnc2c(nnn2-c2ccc(C)cc2)c1=O,"12.6 µM [rising, partial curve]"
5,COc1ccccc1C1CC(c2ccc(Cl)cc2Cl)Nc2nc(N)nn21 (centres undefined),"12.6 µM [rising, single point]"
6,CC(=O)N1CCN(c2ccccc2NC(=O)COc2ccc(Cl)cc2Cl)CC1,"5.01 µM [rising, partial curve]"
7,CCN(CC)CCOc1cc2c(nn1)Oc1ccccc1N2C,"0.501 µM [falling, partial curve]"
8,C=CCn1c(SCc2ccccc2C#N)nnc1-c1cc(Br)ccc1O,"20 µM [falling, single point]"
9,Cc1ccc(C)c(N2CCN(Cc3nnnn3C3CCCCC3)CC2)c1,"12.6 µM [rising, single point]"
10,CN(C)c1ccc(-n2cc3c(=O)n(C)c(=O)n(C)c3c2)cc1,"10 µM [rising, partial curve]"
11,CCC(O)CNc1nc(-n2nc(C)cc2C)nc2sc3c(c12)CCCC3 (centres undefined),"0.631 µM [rising, full curve]"
12,COc1ccccc1-c1cc(=O)c2cc(O)ccc2o1,"2.51 µM [rising, partial curve, poor fit]"
13,Cn1c(=O)c(CCc2ccccc2)nc2cnc(N3CCOCC3)nc21,"12.6 µM [rising, partial curve]"
14,CCOC(=O)c1sc(NC(C)=O)cc1C,"10 µM [rising, partial curve]"
15,CCn1c(=O)cc(OCC(=O)NCc2cccnc2)c2ccccc21,"10 µM [rising, single point]"
16,CCNc1ncc2nc(-c3ccc(F)cc3)c(=O)n(Cc3ccc(F)cc3)c2n1,"15.8 µM [rising, partial curve]"
17,Cn1c(C(C#N)C2=C(Cl)C(=O)N(c3ccccc3)C2=O)nc2ccccc21 (centres undefined),"12.6 µM [falling, partial curve]"
18,CCS(=O)(=O)N1CCC(C(=O)Nc2cc(Cl)ccc2O)CC1,"0.00398 µM [falling, full curve, poor fit]"
19,CC(C)c1nc(SCc2ccccn2)c2c(=O)n(C)c(=O)n(C)c2n1,"5.01 µM [rising, partial curve]"
20,Cc1cc(Oc2ccc(Cl)cc2)nc(-c2ccccc2O)n1,"7.94 µM [rising, partial curve]"
21,CCOC(=O)C(C)Oc1ccc(C2NC(=O)NC(C)=C2C(C)=O)cc1Br (centres undefined),"12.6 µM [falling, partial curve]"
22,COC(=O)C1=CNC=C(C(=O)OC)C1c1ccc(C(=O)OC)cc1,"12.6 µM [rising, partial curve]"
23,O=C(c1cc(-c2ccc(O)cc2)on1)N1CCc2ccccc2C1,"10 µM [falling, partial curve]"

row,Structure (SMILES),AC50
1,COC(=O)c1ccc(CSc2nc(C(F)(F)F)c3c(c2C#N)CCC3)o1,"10 µM [rising, partial curve]"
2,COc1cccc(-c2nc(NCc3cnc(C)cn3)c3ccccc3n2)c1,"10 µM [rising, partial curve]"
3,CC(C(=O)N1CCc2ccccc21)N1CCc2ccccc2C1 (centres undefined),"10 µM [falling, partial curve]"
4,CC(=O)C1=C(C)NC(SCC(=O)c2ccc(Cl)cc2Cl)=C(C#N)C1c1ccco1 (centres undefined),"3.98 µM [rising, single point]"
5,CCn1c(SCc2nc3ccccc3s2)nnc1-c1cccs1,"5.01 µM [falling, single point]"
6,CCOC(=O)N1CCC(NC(=O)c2cc3c(=O)n(C)c4ccccc4c3n2C)CC1,"5.01 µM [rising, partial curve]"
7,Cc1cc(C)n(-c2c(F)c(F)c(CN3CCOCC3)c(F)c2F)n1,"2.51 µM [falling, full curve, poor fit]"
8,CCCCNC(=O)c1cc2c(=O)n3cccc(C)c3nc2n(Cc2ccncc2)c1=N,"5.01 µM [rising, partial curve]"
9,O=c1c(/C=N/O)c(Nc2ccccc2)nc2ccccn12,"6.31 µM [rising, partial curve]"
10,Nc1nc2sc3c(c2cc1C(=O)N1CCOCC1)CCCC3,"0.00316 µM [falling, full curve, poor fit]"
11,CC1CCCCN1CCNC(=O)c1cc2c(=O)n(C)c3ccccc3c2n1C (centres undefined),"7.94 µM [rising, partial curve]"
12,COC(=O)c1c(-c2cc(OC)c(OC)c(OC)c2)c2ccnc(OCc3ncccn3)c2c(=O)n1Cc1ccnc(C)c1,"0.0316 µM [rising, full curve, poor fit]"
13,CCSc1nnc(NC(=O)c2ccccn2)s1,"12.6 µM [falling, single point]"
14,O=C1Nc2cc3c(cc2Sc2ccccc21)OCCO3,"3.98 µM [falling, single point]"
15,O=C(c1c(F)cccc1F)N1CCN(c2ccccc2F)CC1,"0.01 µM [falling, full curve, poor fit]"
16,O=C1c2ccccc2C(=O)N1CCCSc1ccccc1,"3.98 µM [rising, single point]"
17,Cc1cc(C)n(-c2nc(NCCCO)c3c4c(sc3n2)CCCC4)n1,"1.26 µM [rising, full curve]"
18,CCC1CCCCN1CCCNC(=O)CNC(=O)Cn1ccc2ccccc2c1=O (centres undefined),"12.6 µM [rising, single point]"
19,COc1cc(C)c(CNc2ccc(OC)c(OC)c2)cc1C,"1 µM [falling, partial curve, poor fit]"
20,CCNC(=O)NC(=O)C(C)OC(=O)c1cccnc1SC (centres undefined),"2.51 µM [falling, partial curve]"
21,COc1ccc(-c2nc3cnc(OC)nc3n(C3CC3)c2=O)cc1,"3.16 µM [rising, partial curve, poor fit]"
22,O=S(=O)(Nc1cccnc1)c1ccc2c(c1)OCCO2,"3.98 µM [falling, single point]"
23,C/C(=N\O)c1ccc(N2C(=O)C3CC=C(Cl)CC3C2=O)cc1 (centres undefined),"0.158 µM [rising, full curve, poor fit]"

# Already shown: two of the compounds above.
row,Structure (SMILES),AC50
15,O=C(c1c(F)cccc1F)N1CCN(c2ccccc2F)CC1,"0.01 µM [falling, full curve, poor fit]"
16,O=C1c2ccccc2C(=O)N1CCCSc1ccccc1,"3.98 µM [rising, single point]"

# Continued.

row,Structure (SMILES),AC50
1,COc1cc2c(cc1O)C(SC)=NC(C)(C)C2,"12.6 µM [falling, single point]"
2,COC(=O)c1sccc1NC(=O)c1ccc(OC)cc1,"25.1 µM [rising, single point]"
3,CCc1nn(-c2cc(Cl)ccc2OC)c2c1C(=O)CCC2,"12.6 µM [rising, partial curve]"
4,Cn1nc(C(=O)Nc2sccc2C(N)=O)ccc1=O,"0.316 µM [falling, full curve]"
5,CCn1c(CSc2nc(C)cc(C)n2)nnc1SCC(=O)N1CCCc2ccccc21,"12.6 µM [rising, single point]"
6,COC(=O)c1cc(OC)c(OC)cc1NC(=O)c1ccc(Br)o1,"6.31 µM [rising, partial curve]"
7,N#Cc1cc2cc3c(cc2nc1N1CCCCC1)OCCO3,"12.6 µM [rising, partial curve]"
8,O=C(c1cc2n(n1)C(C(F)(F)F)CC(c1ccco1)N2)N1CCc2ccccc2C1 (centres undefined),"10 µM [falling, single point]"
9,CCOc1ccc(Nc2oc(Cc3ccccc3)nc2C#N)cc1,"10 µM [rising, partial curve]"
10,CCNc1nc(N)c(C(=O)c2ccc(Cl)s2)s1,"6.31 µM [falling, full curve]"
11,CCCCc1ccc(NC(=O)c2c(C)noc2C)cc1,"10 µM [falling, partial curve]"
12,CCOc1ccc2nc(SCC(=O)NCc3ccco3)sc2c1,"20 µM [rising, single point]"
13,O=C(CSc1ccc2nnc(-c3ccccn3)n2n1)NCc1ccco1,"25.1 µM [falling, single point]"
14,O=S1(=O)N=CN(Cc2cccc(F)c2)c2ccccc21,"0.398 µM [rising, full curve]"
15,CCOCCCNC(=O)c1cc2c(=O)n3cccc(C)c3nc2n1C,"0.251 µM [rising, full curve]"
16,CCOCCCNC(=O)c1c(C)[nH]c(C(=O)OCC)c1C,"20 µM [falling, partial curve, poor fit]"
17,COc1ccc(-c2nc3cnc(N(C)C)nc3n(Cc3cccs3)c2=O)cc1,"12.6 µM [rising, partial curve]"
18,N#CC1=C(N)Oc2cc(N)ccc2C1C1CCCCC1 (centres undefined),"3.98 µM [falling, full curve, poor fit]"
19,COc1ccc(C(=O)CSc2nnc(-c3cc4ccccc4cc3O)n2Cc2ccco2)cc1,"12.6 µM [falling, single point]"
20,O=C(O)c1[nH]c2c([N+](=O)[O-])cc([N+](=O)[O-])cc2c1C(=O)O,"0.0251 µM [rising, full curve, poor fit]"
21,NC(=O)COc1c(-c2ccccc2)oc2ccccc2c1=O,"5.01 µM [rising, partial curve]"
22,COc1ccc(NC(=O)CSc2nnc(-c3ccccn3)n2N)cc1Cl,"10 µM [rising, single point]"
23,Cc1noc(C)c1-c1nccc(NCc2cccs2)n1,"6.31 µM [rising, partial curve]"

# Random excerpt: 3 records from the list, in no set order.
row,Structure (SMILES),AC50
2,COC(=O)c1sccc1NC(=O)c1ccc(OC)cc1,"25.1 µM [rising, single point]"
17,COc1ccc(-c2nc3cnc(N(C)C)nc3n(Cc3cccs3)c2=O)cc1,"12.6 µM [rising, partial curve]"
9,CCOc1ccc(Nc2oc(Cc3ccccc3)nc2C#N)cc1,"10 µM [rising, partial curve]"
